# Results reported in publication PMC3141008.
# No constants are given. Whether binding was seen depends on the method and setting. In cells and extracts the contact can be indirect. Some binding calls cover weakened binding; strength is not graded here. Where a sequence is shown, tags or fusion partners need not be part of it.
# T1: NUCLEAR RNA POLYMERASE D1 (NRPD1), carboxy-terminal 3×Flag tagged (Arabidopsis thaliana) (UniProt Q9LQ02)
# T1 sequence: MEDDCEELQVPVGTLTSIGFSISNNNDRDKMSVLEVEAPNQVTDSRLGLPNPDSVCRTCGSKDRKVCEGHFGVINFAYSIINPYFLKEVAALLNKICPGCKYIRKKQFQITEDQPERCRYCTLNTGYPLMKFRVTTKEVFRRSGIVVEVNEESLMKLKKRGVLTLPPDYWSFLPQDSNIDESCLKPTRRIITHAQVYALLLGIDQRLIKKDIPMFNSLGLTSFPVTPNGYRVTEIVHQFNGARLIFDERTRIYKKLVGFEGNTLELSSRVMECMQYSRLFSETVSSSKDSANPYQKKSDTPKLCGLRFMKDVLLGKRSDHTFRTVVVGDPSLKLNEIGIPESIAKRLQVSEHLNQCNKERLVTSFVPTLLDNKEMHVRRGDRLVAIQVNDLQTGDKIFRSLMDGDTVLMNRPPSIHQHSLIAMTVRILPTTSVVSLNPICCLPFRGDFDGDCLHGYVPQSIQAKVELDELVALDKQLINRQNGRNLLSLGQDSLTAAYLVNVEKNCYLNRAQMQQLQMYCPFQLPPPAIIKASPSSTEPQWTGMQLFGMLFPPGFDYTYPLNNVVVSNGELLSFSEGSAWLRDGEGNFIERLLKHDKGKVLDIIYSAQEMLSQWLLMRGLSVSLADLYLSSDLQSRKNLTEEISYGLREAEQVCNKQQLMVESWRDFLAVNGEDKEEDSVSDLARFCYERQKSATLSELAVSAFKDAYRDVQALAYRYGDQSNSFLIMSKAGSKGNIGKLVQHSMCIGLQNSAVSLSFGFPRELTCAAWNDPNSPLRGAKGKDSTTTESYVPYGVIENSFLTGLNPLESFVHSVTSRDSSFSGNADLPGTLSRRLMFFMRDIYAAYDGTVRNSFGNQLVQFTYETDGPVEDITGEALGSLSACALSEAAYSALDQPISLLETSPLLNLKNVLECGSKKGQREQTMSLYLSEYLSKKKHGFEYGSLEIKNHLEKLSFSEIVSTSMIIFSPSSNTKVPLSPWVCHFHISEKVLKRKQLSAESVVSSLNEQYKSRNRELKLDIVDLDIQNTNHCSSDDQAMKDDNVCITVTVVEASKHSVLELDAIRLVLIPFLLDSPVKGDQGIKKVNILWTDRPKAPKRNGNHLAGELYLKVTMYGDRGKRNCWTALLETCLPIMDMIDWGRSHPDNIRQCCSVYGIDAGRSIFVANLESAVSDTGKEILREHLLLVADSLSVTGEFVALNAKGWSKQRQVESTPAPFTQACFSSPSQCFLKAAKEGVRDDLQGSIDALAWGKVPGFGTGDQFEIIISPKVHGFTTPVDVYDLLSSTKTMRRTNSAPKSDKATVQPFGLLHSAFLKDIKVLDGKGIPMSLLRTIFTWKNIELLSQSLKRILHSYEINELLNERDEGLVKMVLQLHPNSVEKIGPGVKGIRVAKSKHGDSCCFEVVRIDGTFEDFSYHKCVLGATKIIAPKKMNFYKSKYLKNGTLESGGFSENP
# B1: RNA-… RNA POLYMERASE 2 (RDR2), carboxy-terminal epitope tagged (protein, UniProt O82504 1-1133)
# chain: MVSETTTNRSTVKISNVPQTIVADELLRFLELHLGEDTVFALEIPTTRDNWKPRDFARVQFTTLEVKSRAQLLSSQSKLLFKTHNLRLSEAYDDIIPRPVDPRKRLDDIVLTVGFPESDEKRFCALEKWDGVRCWILTEKRRVEFWVWESGDCYKIEVRFEDIIETLSCCVNGDASEIDAFLLKLKYGPKVFKRVTVHIATKFKSDRYRFCKEDFDFMWIRTTDFSGSKSIGTSTCFCLEVHNGSTMLDIFSGLPYYREDTLSLTYVDGKTFASAAQIVPLLNAAILGLEFPYEILFQLNALVHAQKISLFAASDMELIKILRGMSLETALVILKKLHQQSSICYDPVFFVKTQMQSVVKKMKHSPASAYKRLTEQNIMSCQRAYVTPSKIYLLGPELETANYVVKNFAEHVSDFMRVTFVEEDWSKLPANALSVNSKEGYFVKPSRTNIYNRVLSILGEGITVGPKRFEFLAFSASQLRGNSVWMFASNEKVKAEDIREWMGCFRKIRSISKCAARMGQLFSASRQTLIVRAQDVEQIPDIEVTTDGADYCFSDGIGKISLAFAKQVAQKCGLSHVPSAFQIRYGGYKGVIAVDRSSFRKLSLRDSMLKFDSNNRMLNVTRWTESMPCFLNREIICLLSTLGIEDAMFEAMQAVHLSMLGNMLEDRDAALNVLQKLSGENSKNLLVKMLLQGYAPSSEPYLSMMLRVHHESQLSELKSRCRILVPKGRILIGCMDEMGILEYGQVYVRVTLTKAELKSRDQSYFRKIDEETSVVIGKVVVTKNPCLHPGDIRVLDAIYEVHFEEKGYLDCIIFPQKGERPHPNECSGGDLDGDQFFVSWDEKIIPSEMDPPMDYAGSRPRLMDHDVTLEEIHKFFVDYMISDTLGVISTAHLVHADRDPEKARSQKCLELANLHSRAVDFAKTGAPAEMPYALKPREFPDFLERFEKPTYISESVFGKLYRAVKSSLAQRKPEAESEDTVAYDVTLEEAGFESFIETAKAHRDMYGEKLTSLMIYYGAANEEEILTGILKTKEMYLARDNRRYGDMKDRITLSVKDLHKEAMGWFEKSCEDEQQKKKLASAWYYVTYNPNHRDEKLTFLSFPWIVGDVLLDIKAENAQRQSVEEKTSGLVSI
# B2: CLASSY 1 (CLSY1), amino-terminal BLRP-3×HA tagged (protein, UniProt Q9M297 1-1256)
# chain: MKRKHYFEFNHPFNPCPFEVFCWGTWKAVEYLRIENGTMTMRLLENGQVLDDIKPFQRLRIRSRKATLIDCTSFLRPGIDVCVLYQRDEETPEPVWVDARVLSIERKPHESECLCTFHVSVYIDQGCIGLEKHRMNKVPVLVGLNEIAILQKFCKEQSLDRYYRWRYSEDCSSLVKTRLNLGKFLPDLTWLLVTSVLKNIVFQIRTVHEKMVYQIVTDEDCEGSSSSLSAMNITVEDGVVMSKVVLFNPAEDTCQDSDVKEEIEEEVMELRRSKRRSGRPERYGDSEIQPDSKDGWVRMMPYRYNIWNVSSDDDDEEEDCEDDKDTDDDLYLPLSHLLRKKGSKKGFSKDKQREIVLVDKTERKKRKKTEGFSRSCELSVIPFTPVFEPIPLEQFGLNANSLCGGVSGNLMDEIDKYRSKAAKYGKKKKKKIEMEEMESDLGWNGPIGNVVHKRNGPHSRIRSVSRETGVSEEPQIYKKRTLSAGAYNKLIDSYMSRIDSTIAAKDKATNVVEQWQGLKNPASFSIEAEERLSEEEEDDGETSENEILWREMELCLASSYILDDHEVRVDNEAFHKATCDCEHDYELNEEIGMCCRLCGHVGTEIKHVSAPFARHKKWTTETKQINEDDINTTIVNQDGVESHTFTIPVASSDMPSAEESDNVWSLIPQLKRKLHLHQKKAFEFLWKNLAGSVVPAMMDPSSDKIGGCVVSHTPGAGKTFLIIAFLASYLKIFPGKRPLVLAPKTTLYTWYKEFIKWEIPVPVHLLHGRRTYCMSKEKTIQFEGIPKPSQDVMHVLDCLDKIQKWHAQPSVLVMGYTSFLTLMREDSKFAHRKYMAKVLRESPGLLVLDEGHNPRSTKSRLRKALMKVDTDLRILLSGTLFQNNFCEYFNTLCLARPKFVHEVLVELDKKFQTNQAEQKAPHLLENRARKFFLDIIAKKIDTKVGDERLQGLNMLRNMTSGFIDNYEGSGSGSGDVLPGLQIYTLLMNSTDVQHKSLTKLQNIMSTYHGYPLELELLITLAAIHPWLVKTTTCCAKFFNPQELLEIEKLKHDAKKGSKVMFVLNLVFRVVKREKILIFCHNIAPIRLFLELFENVFRWKRGRELLTLTGDLELFERGRVIDKFEEPGGQSRVLLASITACAEGISLTAASRVIMLDSEWNPSKTKQAIARAFRPGQQKVVYVYQLLSRGTLEEDKYRRTTWKEWVSSMIFSEEFVEDPSQWQAEKIEDDVLREIVEEDKVKSFHMIMKNEKASTGG
# B3: RNA-DIRECTED DNA …ON 4 (RDM4)/… IN MERISTEM … 4 (DMS4) (protein, UniProt Q8GYP3 1-346)
# chain: MDGVGESSTQNEVEEKPVIVRVKRKVGQSLLDAFWLEINERPLKRPTLDFSKLSISDSGERGPSVAEDVKPKKVLVRHLETVTDSETTADIIHSFFESDHNEKSCSKGKFEERKIAFKKDNRKEQRLTKSVQKQQIASENARFEQIWRSRKGNKEGIHEKCHFFDVIRVDTEERRDNAQEFTSLEDQKMLASFLPLLRECIPTAAEEIEADIQSSHTEEYVYDYYAVNEEMDISEDSSKNQFPLVIVEDEEEFCDGSDESDYDSEDSNAEDHPKTDYPEEEEEEEEEDDDDDDDDESEEEKSEASDESDDEETSKRHVRSVLGDDEFDDYAEDVYGYSESDEEFES
# B4: SAWADEE HOMEODOMAIN HOMOLOG 1 (SHH1), carboxy-terminal epitope tagged (protein, UniProt Q9XI47 1-258)
# chain: MAASDDSSHYFTEFTLSEIVDMENLYKELGDQSLHKDFCQTVASTFSCSVNRNGKSSITWKQVQIWFQEKLKHQSQPKSKTLPSPPLQIHDLSNPSSYASNASNATFVGNSTFVQTRKGKASDLADLAFEAKSARDYAWYDVSSFLTYRVLRTGELEVRVRFSGFDNRHDEWVNVKTSVRERSIPVEPSECGRVNVGDLLLCFQEREDQALYCDGHVLNIKRGIHDHARCNCVFLVRYELDNTEESLGLERICRRPEE
# Target: T1, NUCLEAR RNA POLYMERASE D1 (NRPD1), carboxy-terminal 3×Flag tagged (Arabidopsis thaliana)
# Assay: co-IP; 0.5-1 g tissue of parental lines and F1 plants expressing both epitope tagged proteins (for RDM4: Col or tagged-NRPD1 plants, endogenous RDM4 detected with anti-RDM4); lysis buffer; Myc agarose or M2 Flag agarose, 2 hours at 4°C; western blot
row,Binder,binding
1,B1,binds
2,B2,binds
3,B3,binds
4,B4,binds
